Results published in patent publication US10655183B2, “Carcinoma diagnosis and treatment based on ODC1 genotype” (THE ARIZONA BOARD OF REGENTS ON BEHALF OF THE UNIVERSITY OF …, priority 2014, dated 2020).
“And” between values parts separate entries of the source, which are not always exact repeats. Equal entries are not always repeated.

Legend:
[1] = system: ODC1 +263 G oligonucleotide G-quadruplex; experiment: CD thermal stability (TM) of G-quadruplex with NSC176327; assay type: binding, human
Description: (§1) Then the samples were heated to 95° C. and slowly cooled to room temperature. For double-stranded conditions, the G-rich and C-rich strands of DNA were annealed by heating the strands to 95° C., rapidly cooling to the strands TM, holding at that temperature for 5 min, and cooling to room temperature at 1° C./min in a Qiagen PCR machine (RotorGene Q Series software). The sample was split to 0 or 100 mM KCl in the presence or absence of 530 ng recombinant human Sp1 protein (Promega, part number E639A) and heated again to the dsDNA annealing temperature, and then allowed to slowly cool again. CD spectra data were recorded on a Jasco-810 spectropolarmeter using a quartz cell with a 1-mm optical path length, with a response time of 1 s. Each sample was processed with three averaged scans within the range of 200 to 350 nm and results were baseline-corrected for signal contributions due to buffer and salts. Thermal melts (TMs) were determined on the Jasco CD instrument, at 263 nm from 4° C. to 90° C. (heating rate of 2° C./min).
(§2) Each of these experiments was done in the presence of 10 mM KCl to allow for equilibrating G-quadruplex formation. […] Although molar ellipticity of both the +263 T and G allele G-quadruplex peaks decreased by ˜⅓ in the presence of 10 mM KCl and the compound, thermal stabilities increased to 75 and 68° C., which translate to nominal ΔTM increases over the DMSO-matched experiment at +14 and +11° C., respectively (Table 3).

[2] = system: ODC1 +263 T oligonucleotide G-quadruplex; experiment: as above; assay type: binding, human
Description: as §1, §2

[3] = 5 uM NSC176327, 10 mM KCl, oligonucleotide 5 μm, parallel G-quadruplex peak 262-264 nm

## COc1ccc2c(c1)c1c(C)c3cnccc3c(C)c1n2CCCN [NSC176327]
[1]; 5 μM NSC176327, 10 mM KCl
  decrease of molar ellipticity of G-quadruplex peaks: ⅓
[1]; [3]
  TM: 68 °C and 68.45 °C
[2]; 5 μM NSC176327, 10 mM KCl
  decrease of molar ellipticity of G-quadruplex peaks: ⅓
[2]; [3]
  TM: 75 °C and 74.69 °C
